Laboratory results taken from PMC10758103.
Results are given in words; binding and its absence hold for the method and conditions named. Binding seen in cells or lysates may run through a third protein. A yes stands for co-enrichment or nearness to the bait. Other partners may have been found.

Sequences of proteins named here, by UniProt entry; tags and fusion partners are left off. Residues count along the entry.
UniProt Q07021, residues 74-282: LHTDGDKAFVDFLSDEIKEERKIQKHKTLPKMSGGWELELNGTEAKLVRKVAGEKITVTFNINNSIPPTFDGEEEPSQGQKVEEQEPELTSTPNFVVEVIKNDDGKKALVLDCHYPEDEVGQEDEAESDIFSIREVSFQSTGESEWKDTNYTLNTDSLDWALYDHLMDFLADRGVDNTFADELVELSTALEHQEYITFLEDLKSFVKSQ

Biological target: p32 (endogenous) (human (endogenous in HEK-293T, ACHN and 786-O)) (UniProt Q07021)
Assay: affinity purification with mass spectrometry; immunoprecipitation with p32 antibody from mitochondrial extracts of HEK-293T cells, mass spectrometry

B1: Dihydrolipoyllysine-residue acetyltransferase component of pyruvate dehydrogenase complex (DLAT), endogenous (protein, UniProt P10515 87-647)
chain: SLPPHQKVPLPSLSPTMQAGTIARWEKKEGDKINEGDLIAEVETDKATVGFESLEECYMAKILVAEGTRDVPIGAIICITVGKPEDIEAFKNYTLDSSAAPTPQAAPAPTPAATASPPTPSAQAPGSSYPPHMQVLLPALSPTMTMGTVQRWEKKVGEKLSEGDLLAEIETDKATIGFEVQEEGYLAKILVPEGTRDVPLGTPLCIIVEKEADISAFADYRPTEVTDLKPQVPPPTPPPVAAVPPTPQPLAPTPSAPCPATPAGPKGRVFVSPLAKKLAVEKGIDLTQVKGTGPDGRITKKDIDSFVPSKVAPAPAAVVPPTGPGMAPVPTGVFTDIPISNIRRVIAQRLMQSKQTIPHYYLSIDVNMGEVLLVRKELNKILEGRSKISVNDFIIKASALACLKVPEANSSWMDTVIRQNHVVDVSVAVSTPAGLITPIVFNAHIKGVETIANDVVSLATKAREGKLQPHEFQGGTFTISNLGMFGIKNFSAIINPPQACILAIGASEDKLVPADNEKGFDVASMMSVTLSCDHRVVDGAVGAQWLAEFRKYLEKPITMLL
In the case of B1, the binding is reported as “binds”.
